Results deposited as PubChem BioAssay AID1224828 (NIAID, 2016).
Here is one part, drawn at random, of about 17,000 deposited reagents. 762 of all reagents (4.5%) were called active. 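Active calls include both raised and lowered p65 entry, mostly lowered; wells with fewer than 50 cells lack a z-score.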 Raw values are not corrected between plates. A reagent listed more than once was tested more than once; the source does not tell the runs apart.

Purpose: 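Find genes required for NF-kappaB p65 moving into the nucleus after LPS in mouse macrophages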 (primary screen)
Cells: mouse RAW264.7 G9 macrophage reporter cells (GFP-p65, Tnf promoter-mCherry)
Reagents: siRNA pool against mouse genes, 100 nM
Timing: 2 days siRNA transfection, then 40 min LPS before fixation
Conditions: LPS (Salmonella minnesota R595) at 10 ng/ml
Read-out: 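Imaged p65 nuclear translocation ratio, normalised to the plate median, converted to robust z-scores and averaged across two replicates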
Direction: p65 translocation robust z-score: higher = more nuclear NF-kappaB p65 after LPS than the plate median; nuclear/cytoplasmic p65 ratio: higher = more nuclear NF-kappaB p65
Rule for the call: 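Called active when z exceeds 3.3 or falls under -1.56 (median of Tlr4 controls), giving activity score of at least 50; no calls for control wells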
Meaning of the calls: active = hit (p65 shift raised or lowered); inactive = no clear change

| p65 translocation robust z-score | nuclear/cytoplasmic p65 ratio, rep 1 | nuclear/cytoplasmic p65 ratio, rep 2 | low cell count flag | Call | gene symbol |
| --- | --- | --- | --- | --- | --- |
| -0.06 | 1.55 | 1.56 | enough cells to score | inactive | Wdr3 (WD repeat domain 3) |
| – | 1.45 | 1.13 | fewer than 50 cells per well; well left out of scoring | inactive | Vmn1r232 (vomeronasal 1 receptor 232) |
| -0.43 | 1.42 | 1.33 | enough cells to score | inactive | Pcdhb18 (protocadherin beta 18) |
| – | 1.16 | 1.17 | fewer than 50 cells per well; well left out of scoring | inactive | Sf3b4 (splicing factor 3b, subunit 4) |
| – | 1.28 | 1.56 | fewer than 50 cells per well; well left out of scoring | inactive | Bri3 (brain protein I3) |
| -1.09 | 1.37 | 1.29 | enough cells to score | inactive | Rpl13a (ribosomal protein L13A) |
| 0.57 | 1.93 | 1.5 | enough cells to score | inactive | Nup42 (nucleoporin 42) |
| 0.57 | 1.86 | 1.39 | enough cells to score | inactive | Grk4 (G protein-coupled receptor kinase 4) |
| 1.8 | 1.68 | 1.93 | enough cells to score | inactive | Grk4 (G protein-coupled receptor kinase 4) |
| 0.52 | 1.59 | 1.41 | enough cells to score | inactive | Ddx20 (DEAD box helicase 20) |
| -0.8 | 1.4 | 1.18 | enough cells to score | inactive | Or6c219 (olfactory receptor family 6 subfamily C member 219) |
| 0.38 | 1.57 | 1.65 | enough cells to score | inactive | Soat2 (sterol O-acyltransferase 2) |
| – | 1.3 | 1.2 | fewer than 50 cells per well; well left out of scoring | inactive | Pate4 (prostate and testis expressed 4) |
| 0.06 | 1.38 | 1.45 | enough cells to score | inactive | Necap1 (NECAP endocytosis associated 1) |
| 1.16 | 1.46 | 1.51 | enough cells to score | inactive | Ebf1 (early B cell factor 1) |
| -0.48 | 1.39 | 1.52 | enough cells to score | inactive | Slco1a4 |
| -0.12 | 1.52 | 1.42 | enough cells to score | inactive | Leap2 (liver-expressed antimicrobial peptide 2) |
| – | 1.1 | 1.2 | fewer than 50 cells per well; well left out of scoring | inactive | Rnf128 (ring finger protein 128) |
| 0.31 | 1.56 | 1.57 | enough cells to score | inactive | Tnfrsf18 (tumor necrosis factor receptor superfamily, member 18) |
| 0.2 | 1.44 | 1.51 | enough cells to score | inactive | Pkp1 (plakophilin 1) |
| -0.64 | 1.48 | 1.37 | enough cells to score | inactive | Or4e5 (olfactory receptor family 4 subfamily E member 5) |
| – | 2.63 | 1.41 | fewer than 50 cells per well; well left out of scoring | inactive | Sdr42e1 (short chain dehydrogenase/reductase family 42E, member 1) |
| 0.08 | 1.48 | 1.63 | enough cells to score | inactive | Adgrf3 (adhesion G protein-coupled receptor F3) |
| – | 1.46 | 1.07 | fewer than 50 cells per well; well left out of scoring | inactive | Tnfsf13 (tumor necrosis factor (ligand) superfamily, member 13) |
| -0.76 | 1.59 | 1.54 | enough cells to score | inactive | Cadps2 (Ca2+-dependent activator protein for secretion 2) |
| 1.32 | 1.61 | 1.35 | enough cells to score | inactive | Nemf (nuclear export mediator factor) |
| -1.38 | 1.42 | 1.52 | enough cells to score | inactive | Ca11 (carbonic anhydrase 11) |
| 0.83 | 1.86 | 1.77 | enough cells to score | inactive | Neurog3 (neurogenin 3) |
| 0.32 | 1.48 | 1.22 | enough cells to score | inactive | Vgll4 (vestigial like family member 4) |
| 0.88 | 1.63 | 1.29 | enough cells to score | inactive | Omp (olfactory marker protein) |
| 0.74 | 1.44 | 1.72 | enough cells to score | inactive | Zfp516 (zinc finger protein 516) |
| 0.8 | 1.55 | 1.46 | enough cells to score | inactive | Ggh (gamma-glutamyl hydrolase) |
| 1.3 | 1.29 | 1.53 | enough cells to score | inactive | Doc2g (double C2, gamma) |
| – | 0.986 | 1.42 | fewer than 50 cells per well; well left out of scoring | inactive | Tmem106b (transmembrane protein 106B) |
| 1.68 | 2.03 | 1.75 | enough cells to score | inactive | Naa50 (N(alpha)-acetyltransferase 50, NatE catalytic subunit) |
| 0.06 | 1.41 | 1.28 | enough cells to score | inactive | Otop1 (otopetrin 1) |
| -1.56 | 1.33 | 1.49 | enough cells to score | inactive | Ankmy2 (ankyrin repeat and MYND domain containing 2) |
| -0.89 | 1.7 | 1.31 | enough cells to score | inactive | Neurl3 (neuralized E3 ubiquitin protein ligase 3) |
| -1.49 | 1.17 | 1.03 | enough cells to score | inactive | Alyref (Aly/REF export factor) |
| 1.18 | 1.91 | 1.69 | enough cells to score | inactive | Nosip (nitric oxide synthase interacting protein) |
| 0.59 | 1.67 | 1.73 | enough cells to score | inactive | Bcas2 (BCAS2 pre-mRNA processing factor) |
| 1.85 | 1.57 | 1.69 | enough cells to score | inactive | Mixl1 (Mix paired-like homeobox) |
| 0.05 | 1.27 | 1.4 | enough cells to score | inactive | Hand1 (heart and neural crest derivatives expressed 1) |
| -0.26 | 1.45 | 1.16 | enough cells to score | inactive | Zfp9 (zinc finger protein 9) |
| -0.46 | 1.44 | 1.22 | enough cells to score | inactive | Or51a6 (olfactory receptor family 51 subfamily A member 6) |
| 1.07 | 1.55 | 1.51 | enough cells to score | inactive | Mgat4a (mannoside acetylglucosaminyltransferase 4, isoenzyme A) |
| 0.94 | 1.62 | 1.76 | enough cells to score | inactive | Socs2 (suppressor of cytokine signaling 2) |
| -1.05 | 1.42 | 1.63 | enough cells to score | inactive | Arap1 (ArfGAP with RhoGAP domain, ankyrin repeat and PH domain 1) |
| -1.46 | 1.45 | 1.35 | enough cells to score | inactive | Or8u9 (olfactory receptor family 8 subfamily U member 9) |
| -0.56 | 1.52 | 1.54 | enough cells to score | inactive | Clec1a (C-type lectin domain family 1, member a) |
| – | 1.42 | 1.41 | fewer than 50 cells per well; well left out of scoring | inactive | Zfp263 (zinc finger protein 263) |
| -0.77 | 1.32 | 1.29 | enough cells to score | inactive | Brix1 (BRX1, biogenesis of ribosomes) |
| -0.86 | 1.59 | 1.39 | enough cells to score | inactive | Or10ag53 (olfactory receptor family 10 subfamily AG member 53) |
| – | 1.14 | 1.2 | fewer than 50 cells per well; well left out of scoring | inactive | Bst1 (bone marrow stromal cell antigen 1) |
| -0.85 | 1.38 | 1.25 | enough cells to score | inactive | Cyp2c54 (cytochrome P450, family 2, subfamily c, polypeptide 54) |
| 1.56 | 1.8 | 1.84 | enough cells to score | inactive | Gpm6b (glycoprotein m6b) |
| 1.63 | 1.51 | 1.74 | enough cells to score | inactive | 5830402J09 |
| -0.16 | 1.58 | 1.41 | enough cells to score | inactive | Or1e25 (olfactory receptor family 1 subfamily E member 25) |
| 1.38 | 1.61 | 1.41 | enough cells to score | inactive | Or8g36 (olfactory receptor family 8 subfamily G member 36) |
| 0.09 | 1.53 | 1.51 | enough cells to score | inactive | Unc5b (unc-5 netrin receptor B) |
| 0.3 | 1.54 | 1.56 | enough cells to score | inactive | Trpv5 |
| -0.62 | 1.34 | 1.32 | enough cells to score | inactive | Fabp2 (fatty acid binding protein 2, intestinal) |
| -2.86 | 1.28 | 1.19 | enough cells to score | active | Map6 (microtubule-associated protein 6) |
| 1.32 | 1.69 | 1.65 | enough cells to score | inactive | Klk1b16 (kallikrein 1-related peptidase b16) |
| -0.99 | 1.34 | 1.26 | enough cells to score | inactive | Orc6 (origin recognition complex, subunit 6) |
| 1.17 | 1.74 | 1.44 | enough cells to score | inactive | Cyp2c50 (cytochrome P450, family 2, subfamily c, polypeptide 50) |
| 0.4 | 1.89 | 1.49 | enough cells to score | inactive | Nol7 (nucleolar protein 7) |
| 0.82 | 1.6 | 1.4 | enough cells to score | inactive | Mmut (methylmalonyl-Coenzyme A mutase) |
| -0.22 | 1.22 | 1.3 | enough cells to score | inactive | Map10 (microtubule-associated protein 10) |
| -0.78 | 1.5 | 1.39 | enough cells to score | inactive | Wbp2 (WW domain binding protein 2) |
| 2.98 | 1.88 | 1.75 | enough cells to score | inactive | Cnot2 (CCR4-NOT transcription complex, subunit 2) |
| -0.62 | 1.56 | 1.49 | enough cells to score | inactive | Actl7a (actin-like 7a) |
| -0.7 | 1.42 | 1.26 | enough cells to score | inactive | Klra12 (killer cell lectin-like receptor subfamily A, member 12) |
| 0.72 | 1.68 | 1.38 | enough cells to score | inactive | Crybb3 (crystallin, beta B3) |
| -0.58 | 1.43 | 1.45 | enough cells to score | inactive | Tlr2 (toll-like receptor 2) |

Reagents above with an active call (1):
| p65 translocation robust z-score | nuclear/cytoplasmic p65 ratio, rep 1 | nuclear/cytoplasmic p65 ratio, rep 2 | low cell count flag | Call | gene symbol |
| --- | --- | --- | --- | --- | --- |
| -2.86 | 1.28 | 1.19 | enough cells to score | active | Map6 (microtubule-associated protein 6) |
